Measurements reported in PubChem BioAssay AID1224826 (NIAID, 2016)
Screen: 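Regulators of Tlr4 signalling leading to Tnf-alpha expression in macrophages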 (primary screen). Cells: RAW264.7 G9 macrophages from mouse bearing reporters for p65 (GFP) and the Tnf promoter (mCherry). Reagent: siRNA pool against mouse genes, 100 nM. Timing: 16 h of LPS stimulation, after 2 days of siRNA transfection. Conditions: bacterial lipopolysaccharide (Salmonella minnesota R595), 10 ng/ml. Read-out: 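Nuclear mCherry signal of the Tnf promoter reporter measured by imaging after background removal, scaled to each plate median and turned into robust z-scores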. Reading the numbers: Tnf reporter robust z-score: higher = stronger Tnf promoter reporter signal after LPS. Hit rule: 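Called active when robust z-score is at most -1.3, matching the median of the Tlr4 knock-down control, or over 3; control wells and wells with under 50 cells never active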. Calls: active = Tnf reporter clearly lowered or raised; inactive = no clear change in Tnf reporter.
Here is a random part of about 17,000 deposited reagents. Over the whole deposit, about 1,110 (6.6%) were called active. 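Active means lowered or raised reporter signal; replicate intensities are raw and not normalised per plate.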 A number with no mark means an inactive call. Further read-outs or replicates are left out here.

After knock-down of Plk2 (GeneID 20620), the screen gave fewer than 50 cells in well fewer than 50 cells per well; well left out of calls.
Cdkl1 (GeneID 71091) gave Tnf reporter robust z-score 3.14 (active); fewer than 50 cells in well enough cells in well.
Adam12 (GeneID 11489) gave Tnf reporter robust z-score -1.15; fewer than 50 cells in well enough cells in well.
After knock-down of Trmt11 (GeneID 73681), the screen gave Tnf reporter robust z-score 1.6; fewer than 50 cells in well enough cells in well.
Knock-down of Zmym5 (GeneID 219105) gave: Tnf reporter robust z-score -0.38; fewer than 50 cells in well enough cells in well.
Silencing of Bbs5 (GeneID 72569) resulted in: fewer than 50 cells in well fewer than 50 cells per well; well left out of calls.
After knock-down of Ctbs (GeneID 74245), the screen gave Tnf reporter robust z-score 0.29; fewer than 50 cells in well enough cells in well.

Targets listed so far whose gene name starts with C or c (2):
Cdkl1 (GeneID 71091): Tnf reporter robust z-score = 3.14 (active); fewer than 50 cells in well = enough cells in well
Ctbs (GeneID 74245): Tnf reporter robust z-score = 0.29; fewer than 50 cells in well = enough cells in well

The list goes on:
With knock-down of Tbc1d22a (GeneID 223754) the results were Tnf reporter robust z-score -0.33; fewer than 50 cells in well enough cells in well.
Knock-down of Srsf6 (GeneID 67996) gave: Tnf reporter robust z-score 0.85; fewer than 50 cells in well enough cells in well.
For Arhgap23 (GeneID 58996), the entry reads Tnf reporter robust z-score -0.97; fewer than 50 cells in well enough cells in well.
Against Tollip (GeneID 54473), the entry reads Tnf reporter robust z-score -0.1; fewer than 50 cells in well enough cells in well.
Ly6g6g (GeneID 78725) gave Tnf reporter robust z-score -0.91; fewer than 50 cells in well enough cells in well.
Knock-down of Klrb1c (GeneID 17059) gave: Tnf reporter robust z-score 1.21; fewer than 50 cells in well enough cells in well.
Knock-down of Pex26 (GeneID 74043) gave: fewer than 50 cells in well fewer than 50 cells per well; well left out of calls.
